Results are given in words; binding and its absence hold for the method and conditions named. Binding seen in cells or lysates may run through a third protein. Some binding calls cover weakened binding; strength is not graded here. Blank lines part the entries; values can stand above or below the substance they belong to.
Columns and labels:
Assay in all cases: co-IP; two differently tagged copies (C-terminal 3 × FLAG and cMyc) co-expressed in HEK-293 cells; lysate immunoprecipitated with anti-FLAG antibody, immunoblot with anti-Myc antibody; lysis buffer 1% NP-40, 150 mM KCl, 50 mM HEPES-NaOH pH 7.5
[1] = target: mysterin A2 single mutant (second Walker A motif mutated), 3 × FLAG- and Myc-tagged copies (human) (UniProt Q63HN8)
[2] = target: mysterin A1B1A2B2 mutant (all four Walker motifs mutated), 3 × FLAG- and Myc-tagged copies (human) (UniProt Q63HN8)
[3] = target: mysterin A1B2 mutant (first Walker A and second Walker B motifs mutated), 3 × FLAG- and Myc-tagged copies (human) (UniProt Q63HN8)
[4] = target: mysterin A2B2 mutant (second Walker A and B motifs mutated), 3 × FLAG- and Myc-tagged copies (human) (UniProt Q63HN8)
[5] = target: mysterin A1A2 mutant (both Walker A motifs mutated), 3 × FLAG- and Myc-tagged copies (human) (UniProt Q63HN8)
[6] = target: mysterin B2 single mutant (second Walker B motif mutated), 3 × FLAG- and Myc-tagged copies (human) (UniProt Q63HN8)
[7] = target: mysterin B1B2 mutant (both Walker B motifs mutated), 3 × FLAG- and Myc-tagged copies (human) (UniProt Q63HN8)
[8] = target: mysterin R4810K (disease-associated variant) (human) (UniProt Q63HN8)

Amino acid sequences for entries named in this document (tags omitted). A change or cut given only in a name is not applied to a line headed by its entry.
UniProt Q63HN8: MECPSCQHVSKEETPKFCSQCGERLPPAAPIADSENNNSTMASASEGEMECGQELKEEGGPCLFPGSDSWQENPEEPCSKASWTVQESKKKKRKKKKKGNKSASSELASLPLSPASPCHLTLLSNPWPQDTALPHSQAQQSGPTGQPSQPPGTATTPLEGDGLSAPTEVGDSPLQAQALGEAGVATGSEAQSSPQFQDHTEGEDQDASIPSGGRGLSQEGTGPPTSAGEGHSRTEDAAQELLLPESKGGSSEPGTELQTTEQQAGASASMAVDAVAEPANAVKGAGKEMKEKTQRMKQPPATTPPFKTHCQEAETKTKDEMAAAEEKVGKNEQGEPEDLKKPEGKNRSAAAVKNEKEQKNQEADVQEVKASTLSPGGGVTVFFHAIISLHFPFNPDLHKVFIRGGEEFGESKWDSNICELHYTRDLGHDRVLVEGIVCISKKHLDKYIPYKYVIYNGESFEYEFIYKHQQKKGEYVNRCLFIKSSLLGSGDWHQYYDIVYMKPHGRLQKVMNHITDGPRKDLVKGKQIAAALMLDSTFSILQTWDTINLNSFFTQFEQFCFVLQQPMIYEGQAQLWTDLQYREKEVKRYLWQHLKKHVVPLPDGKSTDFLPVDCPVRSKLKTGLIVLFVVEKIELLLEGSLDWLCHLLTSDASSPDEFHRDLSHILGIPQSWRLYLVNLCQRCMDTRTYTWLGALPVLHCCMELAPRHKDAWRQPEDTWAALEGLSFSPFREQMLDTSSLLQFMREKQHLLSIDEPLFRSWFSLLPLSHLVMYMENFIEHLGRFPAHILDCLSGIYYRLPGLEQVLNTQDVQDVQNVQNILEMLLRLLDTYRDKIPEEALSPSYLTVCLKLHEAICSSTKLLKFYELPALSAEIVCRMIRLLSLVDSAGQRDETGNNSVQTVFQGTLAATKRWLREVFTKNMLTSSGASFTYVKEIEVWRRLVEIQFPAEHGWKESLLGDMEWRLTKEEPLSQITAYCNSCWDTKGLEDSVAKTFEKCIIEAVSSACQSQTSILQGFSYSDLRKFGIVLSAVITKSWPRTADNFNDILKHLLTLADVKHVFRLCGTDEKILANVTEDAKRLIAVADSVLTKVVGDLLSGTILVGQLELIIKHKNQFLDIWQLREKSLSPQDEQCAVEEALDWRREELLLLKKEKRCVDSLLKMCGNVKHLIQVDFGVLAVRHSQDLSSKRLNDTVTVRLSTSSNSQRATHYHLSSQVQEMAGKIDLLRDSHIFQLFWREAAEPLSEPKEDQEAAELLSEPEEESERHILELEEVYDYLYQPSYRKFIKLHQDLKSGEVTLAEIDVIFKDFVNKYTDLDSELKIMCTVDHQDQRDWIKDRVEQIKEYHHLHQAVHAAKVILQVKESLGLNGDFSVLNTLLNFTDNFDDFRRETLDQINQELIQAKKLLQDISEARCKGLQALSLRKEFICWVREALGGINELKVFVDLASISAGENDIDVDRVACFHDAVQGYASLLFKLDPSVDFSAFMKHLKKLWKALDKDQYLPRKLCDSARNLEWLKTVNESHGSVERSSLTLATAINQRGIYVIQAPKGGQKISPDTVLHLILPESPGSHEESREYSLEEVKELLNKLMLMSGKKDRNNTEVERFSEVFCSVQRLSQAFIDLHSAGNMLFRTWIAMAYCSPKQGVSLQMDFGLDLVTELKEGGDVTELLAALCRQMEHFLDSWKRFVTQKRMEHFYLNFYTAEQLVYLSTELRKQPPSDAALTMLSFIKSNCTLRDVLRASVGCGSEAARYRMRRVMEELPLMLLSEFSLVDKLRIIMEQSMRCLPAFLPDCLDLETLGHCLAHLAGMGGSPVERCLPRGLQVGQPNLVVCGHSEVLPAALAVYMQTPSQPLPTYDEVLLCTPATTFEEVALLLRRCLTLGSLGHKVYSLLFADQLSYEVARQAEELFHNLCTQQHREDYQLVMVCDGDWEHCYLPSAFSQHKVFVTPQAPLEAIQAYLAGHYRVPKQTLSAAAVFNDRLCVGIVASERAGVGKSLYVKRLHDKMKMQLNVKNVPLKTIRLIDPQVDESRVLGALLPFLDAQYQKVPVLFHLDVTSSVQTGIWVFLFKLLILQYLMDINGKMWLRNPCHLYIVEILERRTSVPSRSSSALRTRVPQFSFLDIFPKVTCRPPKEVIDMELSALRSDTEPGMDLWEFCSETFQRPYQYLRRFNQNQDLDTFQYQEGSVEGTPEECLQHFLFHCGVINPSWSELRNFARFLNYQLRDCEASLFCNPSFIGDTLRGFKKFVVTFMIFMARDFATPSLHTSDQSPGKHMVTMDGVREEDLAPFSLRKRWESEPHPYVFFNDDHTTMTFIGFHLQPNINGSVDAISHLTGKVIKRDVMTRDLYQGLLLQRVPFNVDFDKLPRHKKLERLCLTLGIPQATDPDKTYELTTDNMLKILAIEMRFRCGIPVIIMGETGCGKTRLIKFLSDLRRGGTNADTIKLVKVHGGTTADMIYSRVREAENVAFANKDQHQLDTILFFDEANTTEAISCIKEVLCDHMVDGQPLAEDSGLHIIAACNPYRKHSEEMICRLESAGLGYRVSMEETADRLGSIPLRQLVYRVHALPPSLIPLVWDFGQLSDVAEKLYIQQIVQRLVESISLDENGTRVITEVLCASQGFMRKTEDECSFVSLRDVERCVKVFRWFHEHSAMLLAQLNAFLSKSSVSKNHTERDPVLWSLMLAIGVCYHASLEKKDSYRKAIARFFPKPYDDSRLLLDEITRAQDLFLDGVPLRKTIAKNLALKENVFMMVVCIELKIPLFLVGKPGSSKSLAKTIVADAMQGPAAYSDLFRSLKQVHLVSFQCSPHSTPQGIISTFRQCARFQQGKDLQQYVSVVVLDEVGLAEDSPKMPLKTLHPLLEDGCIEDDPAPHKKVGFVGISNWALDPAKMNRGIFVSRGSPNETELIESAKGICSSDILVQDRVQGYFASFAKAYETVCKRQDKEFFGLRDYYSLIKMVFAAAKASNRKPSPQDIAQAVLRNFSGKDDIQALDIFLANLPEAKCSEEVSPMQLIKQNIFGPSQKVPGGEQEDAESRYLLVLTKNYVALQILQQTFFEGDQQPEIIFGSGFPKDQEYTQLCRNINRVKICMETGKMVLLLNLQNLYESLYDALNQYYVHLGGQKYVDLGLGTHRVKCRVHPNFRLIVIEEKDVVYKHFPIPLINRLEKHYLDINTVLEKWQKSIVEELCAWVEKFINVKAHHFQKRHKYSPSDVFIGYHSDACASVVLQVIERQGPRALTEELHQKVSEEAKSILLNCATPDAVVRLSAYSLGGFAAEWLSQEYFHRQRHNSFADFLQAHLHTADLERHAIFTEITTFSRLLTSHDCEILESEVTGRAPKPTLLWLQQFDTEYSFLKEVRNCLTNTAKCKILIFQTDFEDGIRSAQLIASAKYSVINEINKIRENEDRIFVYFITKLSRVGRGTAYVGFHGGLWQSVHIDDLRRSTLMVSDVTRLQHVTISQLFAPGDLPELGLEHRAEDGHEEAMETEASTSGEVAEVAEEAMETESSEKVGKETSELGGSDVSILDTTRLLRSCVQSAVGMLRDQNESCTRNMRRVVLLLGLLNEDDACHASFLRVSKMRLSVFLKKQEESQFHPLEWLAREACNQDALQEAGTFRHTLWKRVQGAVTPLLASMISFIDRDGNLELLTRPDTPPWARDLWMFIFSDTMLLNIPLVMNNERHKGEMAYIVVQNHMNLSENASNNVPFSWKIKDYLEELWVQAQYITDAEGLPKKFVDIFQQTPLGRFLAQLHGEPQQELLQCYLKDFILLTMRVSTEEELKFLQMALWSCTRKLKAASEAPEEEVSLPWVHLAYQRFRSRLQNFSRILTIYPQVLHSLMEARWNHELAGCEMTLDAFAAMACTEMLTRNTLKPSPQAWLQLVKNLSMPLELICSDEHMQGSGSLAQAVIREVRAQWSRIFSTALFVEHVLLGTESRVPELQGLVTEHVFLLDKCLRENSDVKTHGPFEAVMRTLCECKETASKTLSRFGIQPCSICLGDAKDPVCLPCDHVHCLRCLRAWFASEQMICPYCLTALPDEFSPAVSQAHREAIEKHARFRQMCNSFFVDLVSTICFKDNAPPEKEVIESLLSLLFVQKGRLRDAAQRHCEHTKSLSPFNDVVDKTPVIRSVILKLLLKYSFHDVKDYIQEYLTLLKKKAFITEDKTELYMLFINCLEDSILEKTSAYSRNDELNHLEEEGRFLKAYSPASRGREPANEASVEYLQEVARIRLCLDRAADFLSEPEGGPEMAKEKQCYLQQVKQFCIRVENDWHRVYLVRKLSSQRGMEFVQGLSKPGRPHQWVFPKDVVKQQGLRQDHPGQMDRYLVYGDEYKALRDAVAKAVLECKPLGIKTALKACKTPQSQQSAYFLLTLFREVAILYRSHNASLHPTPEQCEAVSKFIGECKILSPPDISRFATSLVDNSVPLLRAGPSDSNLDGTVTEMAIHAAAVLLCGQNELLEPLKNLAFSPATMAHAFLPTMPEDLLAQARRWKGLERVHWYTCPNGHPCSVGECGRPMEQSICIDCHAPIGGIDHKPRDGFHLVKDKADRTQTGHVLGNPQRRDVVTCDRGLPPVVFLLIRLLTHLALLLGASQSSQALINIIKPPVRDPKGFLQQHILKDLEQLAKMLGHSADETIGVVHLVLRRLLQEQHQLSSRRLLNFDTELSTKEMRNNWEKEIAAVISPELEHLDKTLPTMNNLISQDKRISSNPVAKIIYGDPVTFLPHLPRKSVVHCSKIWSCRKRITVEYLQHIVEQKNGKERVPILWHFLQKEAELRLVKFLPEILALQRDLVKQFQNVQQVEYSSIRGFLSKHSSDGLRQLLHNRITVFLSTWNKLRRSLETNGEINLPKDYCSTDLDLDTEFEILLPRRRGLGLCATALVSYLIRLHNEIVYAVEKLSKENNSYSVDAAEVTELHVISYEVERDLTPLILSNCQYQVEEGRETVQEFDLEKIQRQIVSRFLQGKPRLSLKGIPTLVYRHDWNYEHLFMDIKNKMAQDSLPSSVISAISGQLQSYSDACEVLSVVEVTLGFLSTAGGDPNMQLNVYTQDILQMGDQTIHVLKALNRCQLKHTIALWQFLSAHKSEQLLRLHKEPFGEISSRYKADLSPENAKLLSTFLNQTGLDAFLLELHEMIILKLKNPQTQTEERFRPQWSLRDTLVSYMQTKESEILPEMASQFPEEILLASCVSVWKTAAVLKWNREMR

Substance: mysterin A2B2 mutant (second Walker A and B motifs mutated), 3 × FLAG- and Myc-tagged copies (from UniProt Q63HN8 1-5207)
binding [4]: binds

Substance: mysterin A1A2 mutant (both Walker A motifs mutated), 3 × FLAG- and Myc-tagged copies (from UniProt Q63HN8 1-5207)
binding [5]: binds

Substance: mysterin B2 single mutant (second Walker B motif mutated), 3 × FLAG- and Myc-tagged copies (from UniProt Q63HN8 1-5207)
binding [6]: binds

Substance: mysterin B1B2 mutant (both Walker B motifs mutated), 3 × FLAG- and Myc-tagged copies (from UniProt Q63HN8 1-5207)
binding [7]: binds

Substance: mysterin R4810K (disease-associated variant) (from UniProt Q63HN8 1-5207)
binding [8]: binds

The next lines start with the values.

binding [1]: binds
Substance: mysterin A2 single mutant (second Walker A motif mutated), 3 × FLAG- and Myc-tagged copies (from UniProt Q63HN8 1-5207)

binding [2]: binds
Substance: mysterin A1B1A2B2 mutant (all four Walker motifs mutated), 3 × FLAG- and Myc-tagged copies (from UniProt Q63HN8 1-5207)

binding [3]: binds
Substance: mysterin A1B2 mutant (first Walker A and second Walker B motifs mutated), 3 × FLAG- and Myc-tagged copies (from UniProt Q63HN8 1-5207)

Reference: article PMC3963067
